Measurements from the supplement of paper PMC4604168 (melanoma cell lines).
This is one part of the list. Repeats are few or missing, and single values can be far off.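 Imaging used 1,536-well plates; nuclei positive for cleaved PARP by antibody were divided by total DNA-stained nuclei to yield the apoptosis fraction. Doses for screening kept most cells viable, and cell lines differ markedly in resting and induced cleaved-PARP levels.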

How the values were obtained:
Experiment in all cases: cleaved PARP positive nuclei fraction relative to DMSO control; melanoma cells; higher = more apoptosis
Conditions in all cases: library dose: low library concentration; 72 h
MZ2-MEL = system: MZ2-MEL
MeWo = system: MeWo
RPMI7951 = system: RPMI7951
RVH-421 = system: RVH-421
SkMel28 = system: SkMel28
SkMel30 = system: SkMel30
SkMel5 = system: SkMel5
UACC257 = system: UACC257
UACC62 = system: UACC62
WM115 = system: WM115
WM1716 = system: WM1716
WM1745 = system: WM1745
WM3526 = system: WM3526
WM3619 = system: WM3619
WM451Lu = system: WM451Lu

SMILES | cleaved PARP positive nuclei fraction (MZ2-MEL) [%] | cleaved PARP positive nuclei fraction (MeWo) [%] | cleaved PARP positive nuclei fraction (RPMI7951) [%] | cleaved PARP positive nuclei fraction (RVH-421) [%] | cleaved PARP positive nuclei fraction (SkMel28) [%] | cleaved PARP positive nuclei fraction (SkMel30) [%] | cleaved PARP positive nuclei fraction (SkMel5) [%] | cleaved PARP positive nuclei fraction (UACC257) [%] | cleaved PARP positive nuclei fraction (UACC62) [%] | cleaved PARP positive nuclei fraction (WM115) [%] | cleaved PARP positive nuclei fraction (WM1716) [%] | cleaved PARP positive nuclei fraction (WM1745) [%] | cleaved PARP positive nuclei fraction (WM3526) [%] | cleaved PARP positive nuclei fraction (WM3619) [%] | cleaved PARP positive nuclei fraction (WM451Lu) [%]
NCC(=O)Nc1ccc(-n2nc(C(F)(F)F)cc2-c2ccc3c(ccc4ccccc43)c2)cc1 + CCc1ccc(CCOc2ccc(CC3SC(=O)NC3=O)cc2)nc1 [pioglitazone] (first compound 1 µM, partner dose 2 µM) | 42.6 | 194 | 86.8 | 46.2 | 249 | 96.9 | 36.3 | 173 | 54.1 | 75.7 | 125 | 114 | 162 | 81.4 | 388
COc1ccc(-c2ccc3c(N4CCOCC4)nc(N4C[C@@H](C)O[C@@H](C)C4)nc3n2)cc1CO + Oc1nc(-c2ccc(C(F)(F)F)cc2)nc2c1CSCC2 [XAV939] (first compound 0.02 µM, partner dose 2 µM) | 31.4 | 66.7 | 192 | 120 | 94.2 | 41.4 | 101 | 301 | 44 | 140 | 161 | 125 | 110 | 102 | 124
O=C(O)c1ccc(-c2c[nH]c3ncc(-c4ccccc4)cc23)cc1C1CCCC1 + CC(C)CCN1c2nc(Nc3cc(F)c(O)c(F)c3)ncc2N(C)C(=O)C1C [BID1870] (first compound 0.16 µM, partner dose 0.2 µM) | 136 | 164 | 19.2 | 28.4 | 520 | 14.1 | 48.2 | 131 | 89.1 | 199 | 99.3 | 103 | 143 | 81.5 | 38.5
NCC(=O)Nc1ccc(-n2nc(C(F)(F)F)cc2-c2ccc3c(ccc4ccccc43)c2)cc1 + COc1ccc2c(c1)CCC1C2CCC2(C)C(NCCCCCCN3C(=O)C=CC3=O)CCC12 [U73122] (first compound 1 µM, partner dose 0.4 µM) | 97.6 | 397 | 89.8 | 125 | 225 | 58.5 | 171 | 204 | 89.1 | 157 | 91.6 | 105 | 143 | 79.3 | 74.4
COc1cc2ncnc(Nc3ccc(Oc4ccccc4)cc3)c2cc1OC + Cn1cc(/C=C2\C(=O)Nc3cccnc32)c2ccccc21 [GW441756] (first compound 2 µM, partner dose 0.4 µM) | 93 | 83.3 | 77.9 | 54.6 | 84.9 | 21.2 | 175 | 184 | 126 | 134 | 86.6 | 274 | 96.6 | 79.9 | 136
COc1ccc(-c2ccc3c(N4CCOCC4)nc(N4C[C@@H](C)O[C@@H](C)C4)nc3n2)cc1CO + CCCCCCCCCCCC1=C(O)C(=O)C=C(O)C1=O [Embelin] (first compound 0.02 µM, partner dose 1.2 µM) | 62.1 | 54.8 | 50 | 108 | 61.2 | 545 | 179 | 89.2 | 83.8 | 129 | 98.4 | 104 | 63.8 | 82.9 | 161
CN(NC(=O)CC(=O)NN(C)C(=S)c1ccccc1)C(=S)c1ccccc1 + O=C(O)C(=O)Nc1sc2c(c1C(=O)O)CCNC2 [TCS401] (first compound 0.006 µM, partner dose 1.66667 µM) | 66.6 | 154 | 36.6 | 96.4 | 83.6 | 64.9 | 223 | 66.4 | 145 | 31.6 | 102 | 156 | 57.6 | 145 | 28
CN(C)S(=O)(=O)c1ccc2c(c1)/C(=C/c1cc3c([nH]1)CCCC3)C(=O)N2 + Oc1nc(-c2ccc(C(F)(F)F)cc2)nc2c1CSCC2 [XAV939] (first compound 0.4 µM, partner dose 2 µM) | 227 | 68.9 | 260 | 70.5 | 94.4 | 83.9 | 61.9 | 103 | 35.8 | 174 | 81.4 | 106 | 92.6 | 89.2 | 178
COC(=O)c1sccc1S(=O)(=O)Nc1ccc(Nc2ccccc2)cc1OC + COc1cc2ncnc(Nc3ccc(Oc4ccccc4)cc3)c2cc1OC [SrcI1] (first compound 1 µM, partner dose 2 µM) | 181 | 73.6 | 37.1 | 37.5 | 94.1 | 20.3 | 56.3 | 59.1 | 347 | 170 | 73.1 | 116 | 62.2 | 74.3 | 43.5
CCN(CC)CCCCNc1ncc2cc(-c3cc(OC)cc(OC)c3)c(NC(=O)NC(C)(C)C)nc2n1 + O=C1NC(=O)/C(=C/c2ccc(-c3ccc(F)cc3O)o2)S1 [AS252424] (first compound 0.1 µM, partner dose 1 µM) | 70.4 | 55.8 | 40 | 19.8 | 108 | 33.5 | 127 | 127 | 109 | 144 | 124 | 84.5 | 72.5 | 85.2 | 56.6
COc1ccc(-c2ccc3c(N4CCOCC4)nc(N4C[C@@H](C)O[C@@H](C)C4)nc3n2)cc1CO + COc1cc(N2CCC(N3CCN(C)CC3)CC2)ccc1Nc1ncc(Cl)c(Nc2ccccc2S(=O)(=O)C(C)C)n1 [NVP-TAE684] (first compound 0.02 µM, partner dose 0.08 µM) | 85 | 64.7 | 96.6 | 86 | 158 | 17.1 | 34.7 | 153 | 269 | 142 | 101 | 97.1 | 40.1 | 85.1 | 93.3
CCc1ccc(CCOc2ccc(CC3SC(=O)NC3=O)cc2)nc1 (stereo not given) [pioglitazone] + CCN(CC)CCCCNc1ncc2cc(-c3cc(OC)cc(OC)c3)c(NC(=O)NC(C)(C)C)nc2n1 [PD173074] (first compound 2 µM, partner dose 0.1 µM) | 73.1 | 100 | 137 | 83.6 | 49 | 35.3 | 57.2 | 79.9 | 25.2 | 101 | 52.3 | 111 | 135 | 77.1 | 61.7
O=C(O)C(=O)Nc1sc2c(c1C(=O)O)CCNC2 + Cc1cc([N+](=O)[O-])ccc1NS(=O)(=O)c1cc(Cl)ccc1Cl [FH535] (first compound 1.66667 µM, partner dose 1 µM) | 43.3 | 56.6 | 44 | 167 | 252 | 17 | 44.2 | 30.1 | 102 | 105 | 82 | 125 | 74.2 | 178 | 74.2
CCc1ccc(CCOc2ccc(CC3SC(=O)NC3=O)cc2)nc1 (stereo not given) [pioglitazone] + O=C1NC(=O)/C(=C/c2ccc(-c3ccc(F)cc3O)o2)S1 [AS252424] (first compound 2 µM, partner dose 1 µM) | 31 | 102 | 174 | 30.1 | 88.9 | 106 | 29.8 | 152 | 79.1 | 77.4 | 43.2 | 114 | 94.2 | 86 | 108
O=S(=O)(c1ccccc1)N(CC(F)(F)F)c1ccc(C(O)(C(F)(F)F)C(F)(F)F)cc1 + Cc1cc([N+](=O)[O-])ccc1NS(=O)(=O)c1cc(Cl)ccc1Cl [FH535] (first compound 1.4 µM, partner dose 1 µM) | 59.6 | 57.7 | 75.1 | 65.5 | 105 | 241 | 129 | 64.9 | 98 | 154 | 85.5 | 136 | 77.6 | 79.8 | 137
COc1cc(N2CCC(N3CCN(C)CC3)CC2)ccc1Nc1ncc(Cl)c(Nc2ccccc2S(=O)(=O)C(C)C)n1 + Cn1cc(/C=C2\C(=O)Nc3cccnc32)c2ccccc21 [GW441756] (first compound 0.08 µM, partner dose 0.4 µM) | 288 | 55.1 | 86.9 | 96.1 | 156 | 42.5 | 37.5 | 174 | 250 | 116 | 80.5 | 107 | 37.7 | 85.4 | 311
COC(=O)c1sccc1S(=O)(=O)Nc1ccc(Nc2ccccc2)cc1OC + O=C1NC(=O)/C(=C/c2ccc(-c3ccc(F)cc3O)o2)S1 [AS252424] (first compound 1 µM, partner dose 1 µM) | 52.1 | 211 | 275 | 104 | 117 | 49.1 | 32.4 | 88 | 76.7 | 161 | 124 | 126 | 79.1 | 99.7 | 240
COc1cc2ncnc(Nc3ccc(Oc4ccccc4)cc3)c2cc1OC + CCCCCCCCCCCC1=C(O)C(=O)C=C(O)C1=O [Embelin] (first compound 2 µM, partner dose 1.2 µM) | 60.8 | 105 | 37.2 | 127 | 135 | 53.3 | 51.5 | 101 | 38.4 | 68.2 | 96.8 | 115 | 121 | 132 | 90.1
CN(C)S(=O)(=O)c1ccc2c(c1)/C(=C/c1cc3c([nH]1)CCCC3)C(=O)N2 + c1cc(-c2cnn3cc(-c4ccc(OCCN5CCCCC5)cc4)cnc23)ccn1 [Dorsomorphin] (first compound 0.4 µM, partner dose 0.4 µM) | 114 | 68.7 | 81.2 | 37.1 | 236 | 70.4 | 269 | 53.7 | 241 | 260 | 64.9 | 144 | 77 | 70.8 | 44.5
COC(=O)c1sccc1S(=O)(=O)Nc1ccc(Nc2ccccc2)cc1OC + Oc1nc(-c2ccc(C(F)(F)F)cc2)nc2c1CSCC2 [XAV939] (first compound 1 µM, partner dose 2 µM) | 93.3 | 127 | 92.9 | 26.7 | 102 | 22.1 | 65.7 | 56.4 | 42.4 | 30.2 | 62.8 | 123 | 60.2 | 76.7 | 176
